According to US20230212305A1, “ANTI-ABCG2 ANTIBODIES AND USES THEREOF” (Kenjockety Biotechnology, Inc., priority 2020, published 2023):
No constants are given. Whether binding was seen depends on the method and setting. Some results given as binding are weak or reduced against the parent protein; the word gives no strength.

Protein sequences, listed by entry. Tags and fused reporters are not part of them.
UniProt P08183: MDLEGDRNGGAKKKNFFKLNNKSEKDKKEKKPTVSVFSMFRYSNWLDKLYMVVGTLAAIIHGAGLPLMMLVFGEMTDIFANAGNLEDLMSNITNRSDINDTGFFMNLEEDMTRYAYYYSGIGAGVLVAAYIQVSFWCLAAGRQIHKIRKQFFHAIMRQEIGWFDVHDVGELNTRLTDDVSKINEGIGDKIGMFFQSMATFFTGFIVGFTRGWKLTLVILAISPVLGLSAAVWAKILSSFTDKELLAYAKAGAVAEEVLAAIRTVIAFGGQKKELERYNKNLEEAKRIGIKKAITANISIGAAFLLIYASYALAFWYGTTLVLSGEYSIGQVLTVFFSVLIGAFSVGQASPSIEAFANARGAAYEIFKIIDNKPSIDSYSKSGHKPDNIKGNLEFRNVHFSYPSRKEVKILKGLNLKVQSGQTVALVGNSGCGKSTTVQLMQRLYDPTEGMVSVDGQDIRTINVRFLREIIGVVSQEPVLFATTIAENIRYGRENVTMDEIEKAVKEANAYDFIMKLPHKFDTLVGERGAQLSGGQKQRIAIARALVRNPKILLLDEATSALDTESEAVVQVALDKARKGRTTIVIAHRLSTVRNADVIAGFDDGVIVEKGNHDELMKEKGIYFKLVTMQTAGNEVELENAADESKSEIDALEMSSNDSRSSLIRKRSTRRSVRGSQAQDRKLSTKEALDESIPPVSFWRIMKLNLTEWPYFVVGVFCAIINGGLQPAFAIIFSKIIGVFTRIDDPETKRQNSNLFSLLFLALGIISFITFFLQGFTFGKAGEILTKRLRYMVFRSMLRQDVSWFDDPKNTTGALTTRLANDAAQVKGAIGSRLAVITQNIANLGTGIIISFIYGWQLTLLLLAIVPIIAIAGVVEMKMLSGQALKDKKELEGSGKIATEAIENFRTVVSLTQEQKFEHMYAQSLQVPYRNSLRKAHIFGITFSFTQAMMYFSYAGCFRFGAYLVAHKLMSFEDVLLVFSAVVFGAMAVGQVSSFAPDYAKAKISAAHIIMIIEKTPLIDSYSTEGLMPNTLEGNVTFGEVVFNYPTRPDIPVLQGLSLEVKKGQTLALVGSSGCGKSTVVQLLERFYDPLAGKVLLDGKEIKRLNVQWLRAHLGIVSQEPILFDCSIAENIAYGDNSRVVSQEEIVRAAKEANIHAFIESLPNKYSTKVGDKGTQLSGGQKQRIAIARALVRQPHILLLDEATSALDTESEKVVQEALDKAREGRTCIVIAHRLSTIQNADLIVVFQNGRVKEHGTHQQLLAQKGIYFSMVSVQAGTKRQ

B1: G2.631 rat (antibody, human IgG1, V domains shown)
VH: EVKLLESGGGLVQSGRSLKLSCAASGFIFSRFYMAWVRQAPRKGLEWVAYISNGAGSTYYRESVKGRFIISRDNAKSTLYLQMDSLRSEDTATYYCTTVAAPWNYVMDGWGQGASVTVSS
VL: NIQITQSPSLLSASVGDRVTLSCKGSQNINNYLAWYQQKLGEAPKLLIYKTNSLHTGIPSRFSGSGSGTDYTLTISSLHSEDLATYYCYQYNNGYTFGAGTKLELK
B2: anti-ABCG2 antibody 5D3 (antibody, V domains shown)
VH: QVQLQESGPGLVKPSQSLSLTCTVTGFSITSDYAWNWIRQFPGKKLEWMGYINFDGGTTYNPSLRGRISITRDTSKNQFFLQLRSVTPEDTATYYCATFYGAKGTLDYWGQGTSVTVSS
VL: DIVLTQSPSSFSVSLGDRVTISCKASGYILNRLAWYQQKPGNAPRLLISGATSLETGFPSRFSGTGSGKDYTLSISSLQTEDVGTYYCQQYWSTPWTFGGGTKLEIK
B3: G2.333 rat (antibody, human IgG1, V domains shown)
VH: EIQLQESGPGLVKPSQSLSLTCSVTGYTITSGYDWTWLRKFPGNKMEWMGYISYSGFTNYNPSLRSRISISRDTSKNQFFLQLNSVTTEDTATYYCARTRGYNPFPYWGQGTLVTVSS
VL: DIQMTQSPSLLSASVGDRVSLSCKAGRNVNNYLAWYQQKLGKPPKLLIYNSNSLQTGIPSRFSGSGSGTDFTLTISSLQPEDVATYFCQQYNSWTTFGSGTKLEIK
B4: G2.642 rat (antibody, human IgG1, V domains shown)
VH: QIQLVQSGAELVKPGASVKLSCKTSGFTFSSNYISWLRQKPRQSLEWIAWIYSGTGGTYYNQKFTGKAQLTIDTSSNTAYMQLSSLTSEDSAIYYCARHVGLRYWYFDVWGAGTSVTVSS
VL: DIVLTQSPASLTVSLGQRATISCRASESVDSNGNSFMHWYQQKPGQSPKVLIYRASNLESGVPARFSGSGSRTDFTLTINPVEADDVATYYCQQSNEDPWTFGGGTKLEIKR
B5: 15D3 IgG1 DD HC/G2.255KK HC/MRK16 LC (bispecific antibody, not shown: a dimerising Fc or GST)
heavy 1: EVKVVESGGVLVRPGGSLKLSCAASGFTFSRYTMSWVRQTPEKRLEWVATISSGGGNTYYPDSVKGRFTVSRDNAMSSLYLQMSSLRSEDTALYYCARYGAGDAWFAYWGQGTLVTVSS
heavy 2: EVMLVESGGALVKPGGSLKLSCAASGFTFSNNAMSWVRQTPETRLEWVATITGGGSYTYYPDSVKGRFTISRDNARNTLYLQMSSLRSEDTATYYCASPDGNYEGVLAYWGQGTLVTVSA
light: DVLMTQTPVSLSVSLGDQASISCRSSQSIVHSTGNTYLEWYLQKPGQSPKLLIYKISNRFSGVPDRFSGSGSGTDFTLKISRVEAEDLGVYYCFQASHFPRTFGGGTKLEIK
B6: G2.757 rat (antibody, human IgG1, V domains shown)
VH: QVTLKESGPGILRPSHTLSLTCSFSGFSLTTYGICVSWIRQPSGKGLEWLANICWEDSKAYNPSLKNRLTISKDTSNNQVFLRIPSVDTADSAIYYCARVFNNYPFPYWGQGTLVTVSS
VL: TQSPPSLSASLGDKVTITCQASQNINKYVAWYQQKPGKAPRLLIRYTSTLESGTPSRFSGSGSWRDYSFSISNVESEDIADYYCLQYVNLWTFGGGTKLELK

Legend:
human ABCG2 (human) [1] = target: T1, human ABCG2 (human) (UniProt Q9UNQ0); test: flow cytometry, 293T cells overexpressing human ABCG2
T1 sequence: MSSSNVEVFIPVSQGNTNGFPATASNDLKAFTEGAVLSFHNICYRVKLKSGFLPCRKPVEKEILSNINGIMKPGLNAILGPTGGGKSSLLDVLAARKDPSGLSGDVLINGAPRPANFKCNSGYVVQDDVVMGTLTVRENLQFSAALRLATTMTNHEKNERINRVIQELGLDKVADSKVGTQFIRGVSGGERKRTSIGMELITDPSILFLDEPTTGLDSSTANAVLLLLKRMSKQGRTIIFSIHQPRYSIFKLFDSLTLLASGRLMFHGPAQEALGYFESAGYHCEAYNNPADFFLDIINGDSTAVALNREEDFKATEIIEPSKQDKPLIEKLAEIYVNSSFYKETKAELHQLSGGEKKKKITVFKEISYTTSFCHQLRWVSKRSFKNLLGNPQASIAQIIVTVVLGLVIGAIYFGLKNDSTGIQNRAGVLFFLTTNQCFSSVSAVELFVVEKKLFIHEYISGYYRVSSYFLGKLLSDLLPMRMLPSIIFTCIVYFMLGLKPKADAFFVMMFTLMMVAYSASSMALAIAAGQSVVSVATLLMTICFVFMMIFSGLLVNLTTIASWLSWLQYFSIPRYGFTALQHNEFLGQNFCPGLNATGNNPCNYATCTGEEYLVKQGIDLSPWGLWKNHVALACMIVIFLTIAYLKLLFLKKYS

human ABCG2 (human) [2] = target: T1, human ABCG2 (human); test: flow cytometry (FACS) on 293T_ABCG2_OX cells
[3] = target: T2, cynomolgus ABCG2 (Macaca fascicularis) (Macaca fascicularis (cynomolgus)); test: flow cytometry on cells expressing cynomolgus ABCG2
T2 sequence: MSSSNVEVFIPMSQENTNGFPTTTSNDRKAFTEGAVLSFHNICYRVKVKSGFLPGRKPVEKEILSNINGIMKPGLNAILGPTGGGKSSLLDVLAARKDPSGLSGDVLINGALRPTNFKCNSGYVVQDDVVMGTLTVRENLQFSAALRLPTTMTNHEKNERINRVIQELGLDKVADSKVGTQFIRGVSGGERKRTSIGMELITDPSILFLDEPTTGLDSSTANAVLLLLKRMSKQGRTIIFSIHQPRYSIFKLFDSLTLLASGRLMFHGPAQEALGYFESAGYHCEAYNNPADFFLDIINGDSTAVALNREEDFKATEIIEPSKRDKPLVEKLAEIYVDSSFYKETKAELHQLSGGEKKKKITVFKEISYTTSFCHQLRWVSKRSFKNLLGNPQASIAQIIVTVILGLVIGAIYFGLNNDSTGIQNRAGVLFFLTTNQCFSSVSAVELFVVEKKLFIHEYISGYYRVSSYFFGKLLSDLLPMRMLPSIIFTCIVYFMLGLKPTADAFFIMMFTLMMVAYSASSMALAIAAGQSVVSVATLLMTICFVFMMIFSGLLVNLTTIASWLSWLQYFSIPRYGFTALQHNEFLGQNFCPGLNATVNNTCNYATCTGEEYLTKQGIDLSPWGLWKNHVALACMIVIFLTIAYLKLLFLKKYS

[4] = target: T2, cynomolgus ABCG2 (Macaca fascicularis) (Macaca fascicularis (cynomolgus)); test: flow cytometry, 293T cells overexpressing cynomolgus ABCG2
[5] = target: T2, cynomolgus ABCG2 (Macaca fascicularis) (Macaca fascicularis (cynomolgus)); test: FACS, 3T3 cells stably transfected with cABCG2
human ABCG2 (human) [6] = target: T1, human ABCG2 (human); test: FACS on 293T cells overexpressing human ABCG2
[7] = target: human MDR1 (P glycoprotein, ABCB1) (human) (UniProt P08183); test: FACS on 293T cells overexpressing human ABCB1

binding (human ABCG2 (human) [1]) | binding (human ABCG2 (human) [2]) | binding [3] | binding [4] | further results | Binder
binds | binds | binds | binds | – | B1
– | – | binds | – | binding [5]: binds | B2
– | – | binds | – | – | B3
– | binds | – | – | – | B4
– | – | – | – | binding (human ABCG2 (human) [6]): binds; binding [7]: binds | B5
binds | – | – | binds | – | B6
